Assay results reported in doi:10.1101/815506.
Results are given in words; binding and its absence hold for the method and conditions named. In cells and extracts the contact can be indirect. Some binding calls cover weakened binding; strength is not graded here. For part of these data: Tags and fused reporters may be left off the sequences shown.

The chains behind the UniProt entries cited, without tags or fusion partners. Residues count along the entry.
UniProt Q8N884: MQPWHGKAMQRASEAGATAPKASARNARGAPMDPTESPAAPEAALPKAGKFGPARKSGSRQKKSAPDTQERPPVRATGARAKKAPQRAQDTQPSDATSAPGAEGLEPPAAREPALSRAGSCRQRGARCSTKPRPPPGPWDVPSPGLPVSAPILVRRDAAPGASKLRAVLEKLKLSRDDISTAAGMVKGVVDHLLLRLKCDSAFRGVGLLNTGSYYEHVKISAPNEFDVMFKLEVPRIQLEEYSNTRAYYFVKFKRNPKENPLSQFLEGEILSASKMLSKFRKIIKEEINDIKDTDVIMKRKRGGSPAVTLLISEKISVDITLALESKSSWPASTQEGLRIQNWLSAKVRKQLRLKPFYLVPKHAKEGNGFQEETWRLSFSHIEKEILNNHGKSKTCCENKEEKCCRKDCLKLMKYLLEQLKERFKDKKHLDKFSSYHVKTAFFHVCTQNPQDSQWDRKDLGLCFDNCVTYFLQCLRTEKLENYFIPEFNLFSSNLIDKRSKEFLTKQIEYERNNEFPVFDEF
UniProt O15455, residues 24-904: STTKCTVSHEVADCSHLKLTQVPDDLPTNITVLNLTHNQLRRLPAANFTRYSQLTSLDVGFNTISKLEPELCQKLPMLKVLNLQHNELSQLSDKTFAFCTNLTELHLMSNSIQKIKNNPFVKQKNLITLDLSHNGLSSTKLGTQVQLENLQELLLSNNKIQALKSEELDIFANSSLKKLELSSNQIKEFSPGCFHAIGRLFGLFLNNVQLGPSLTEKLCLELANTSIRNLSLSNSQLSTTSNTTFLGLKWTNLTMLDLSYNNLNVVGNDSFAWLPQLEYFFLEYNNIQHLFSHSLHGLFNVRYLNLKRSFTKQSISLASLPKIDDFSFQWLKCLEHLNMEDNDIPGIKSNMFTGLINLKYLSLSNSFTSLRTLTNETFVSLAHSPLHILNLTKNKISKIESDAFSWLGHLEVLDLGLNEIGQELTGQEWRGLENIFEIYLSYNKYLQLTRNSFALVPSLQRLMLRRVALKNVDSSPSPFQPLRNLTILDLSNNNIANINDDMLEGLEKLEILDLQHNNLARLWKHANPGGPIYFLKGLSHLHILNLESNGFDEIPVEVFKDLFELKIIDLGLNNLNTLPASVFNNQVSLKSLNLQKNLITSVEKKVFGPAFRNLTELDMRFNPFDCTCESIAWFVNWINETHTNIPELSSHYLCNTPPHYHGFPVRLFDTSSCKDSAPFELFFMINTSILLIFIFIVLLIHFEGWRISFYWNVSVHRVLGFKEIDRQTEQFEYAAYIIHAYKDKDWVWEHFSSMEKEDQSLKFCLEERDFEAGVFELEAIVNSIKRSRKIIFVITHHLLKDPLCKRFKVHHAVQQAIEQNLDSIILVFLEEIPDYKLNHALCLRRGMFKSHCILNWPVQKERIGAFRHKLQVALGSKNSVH
UniProt O00206, residues 24-839: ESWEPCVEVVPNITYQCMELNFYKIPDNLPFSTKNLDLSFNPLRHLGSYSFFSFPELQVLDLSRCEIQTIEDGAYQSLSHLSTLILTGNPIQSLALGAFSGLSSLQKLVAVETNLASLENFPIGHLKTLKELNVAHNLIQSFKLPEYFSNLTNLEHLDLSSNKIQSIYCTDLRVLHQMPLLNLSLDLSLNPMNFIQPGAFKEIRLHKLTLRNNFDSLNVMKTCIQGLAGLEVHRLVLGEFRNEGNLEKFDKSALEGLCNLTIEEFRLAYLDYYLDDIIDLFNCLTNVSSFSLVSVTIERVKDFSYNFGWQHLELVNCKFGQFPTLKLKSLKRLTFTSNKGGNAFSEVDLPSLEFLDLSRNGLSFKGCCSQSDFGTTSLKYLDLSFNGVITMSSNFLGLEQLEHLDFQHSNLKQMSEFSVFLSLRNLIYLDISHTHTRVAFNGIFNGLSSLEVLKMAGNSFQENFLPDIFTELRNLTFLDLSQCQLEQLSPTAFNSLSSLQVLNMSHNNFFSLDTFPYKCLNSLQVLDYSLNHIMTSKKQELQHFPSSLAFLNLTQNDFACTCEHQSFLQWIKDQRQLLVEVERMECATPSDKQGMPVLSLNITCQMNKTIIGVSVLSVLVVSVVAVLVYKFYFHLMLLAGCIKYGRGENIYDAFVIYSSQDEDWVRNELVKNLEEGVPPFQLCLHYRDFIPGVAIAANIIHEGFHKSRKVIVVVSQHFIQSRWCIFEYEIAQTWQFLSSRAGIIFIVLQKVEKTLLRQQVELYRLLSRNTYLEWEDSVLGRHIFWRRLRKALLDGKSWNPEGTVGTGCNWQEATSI
UniProt Q9NPP4: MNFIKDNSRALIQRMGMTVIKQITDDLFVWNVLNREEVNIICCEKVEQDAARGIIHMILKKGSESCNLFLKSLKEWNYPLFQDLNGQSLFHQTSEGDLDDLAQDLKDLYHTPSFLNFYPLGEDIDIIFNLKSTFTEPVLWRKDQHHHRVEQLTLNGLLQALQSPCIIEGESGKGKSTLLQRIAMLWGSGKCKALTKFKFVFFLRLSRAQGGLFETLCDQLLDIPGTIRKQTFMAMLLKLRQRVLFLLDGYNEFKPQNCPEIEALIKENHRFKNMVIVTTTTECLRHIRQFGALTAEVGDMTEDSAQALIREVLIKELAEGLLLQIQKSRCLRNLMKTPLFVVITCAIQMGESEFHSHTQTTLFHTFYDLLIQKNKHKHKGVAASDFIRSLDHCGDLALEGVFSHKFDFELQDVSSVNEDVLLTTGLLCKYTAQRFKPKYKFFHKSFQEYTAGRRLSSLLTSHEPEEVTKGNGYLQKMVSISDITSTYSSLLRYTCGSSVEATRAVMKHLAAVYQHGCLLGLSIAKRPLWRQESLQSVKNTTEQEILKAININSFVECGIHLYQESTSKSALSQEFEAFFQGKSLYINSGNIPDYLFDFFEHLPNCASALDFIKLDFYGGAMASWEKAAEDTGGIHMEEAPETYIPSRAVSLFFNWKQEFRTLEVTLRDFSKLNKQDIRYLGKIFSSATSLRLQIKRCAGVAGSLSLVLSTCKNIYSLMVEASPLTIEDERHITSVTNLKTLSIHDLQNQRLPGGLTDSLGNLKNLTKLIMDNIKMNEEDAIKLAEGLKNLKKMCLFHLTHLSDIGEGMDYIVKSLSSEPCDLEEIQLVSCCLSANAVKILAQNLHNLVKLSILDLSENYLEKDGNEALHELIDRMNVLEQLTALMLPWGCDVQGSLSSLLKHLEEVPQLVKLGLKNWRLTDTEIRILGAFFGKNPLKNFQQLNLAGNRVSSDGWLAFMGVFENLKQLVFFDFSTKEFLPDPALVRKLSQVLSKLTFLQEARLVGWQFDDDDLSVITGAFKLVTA
UniProt Q96CV9: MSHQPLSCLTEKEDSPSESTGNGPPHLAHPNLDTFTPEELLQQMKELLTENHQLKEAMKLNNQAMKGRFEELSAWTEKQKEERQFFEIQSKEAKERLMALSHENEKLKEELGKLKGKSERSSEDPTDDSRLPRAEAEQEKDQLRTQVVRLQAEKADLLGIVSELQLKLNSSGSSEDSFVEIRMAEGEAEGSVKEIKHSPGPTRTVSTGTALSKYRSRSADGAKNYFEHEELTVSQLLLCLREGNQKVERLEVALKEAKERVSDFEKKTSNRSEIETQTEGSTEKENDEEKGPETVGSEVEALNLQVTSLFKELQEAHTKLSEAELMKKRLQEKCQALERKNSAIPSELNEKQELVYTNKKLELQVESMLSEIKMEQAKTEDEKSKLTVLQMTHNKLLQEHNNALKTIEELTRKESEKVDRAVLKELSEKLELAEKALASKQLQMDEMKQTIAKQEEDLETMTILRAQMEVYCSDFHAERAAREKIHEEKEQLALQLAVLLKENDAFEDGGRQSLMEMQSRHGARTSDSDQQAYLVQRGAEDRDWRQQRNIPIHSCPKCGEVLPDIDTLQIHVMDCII

T1: endogenous IRGM (human (endogenous in THP-1)) (UniProt A1A4Y4)
T1 sequence: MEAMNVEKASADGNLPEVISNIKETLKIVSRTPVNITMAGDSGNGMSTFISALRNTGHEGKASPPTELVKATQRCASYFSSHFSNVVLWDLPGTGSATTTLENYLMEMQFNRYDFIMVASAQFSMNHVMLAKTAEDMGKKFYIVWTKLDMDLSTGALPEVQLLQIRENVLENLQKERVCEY

T2: GFP-IRGM (human) (UniProt A1A4Y4)
T2 sequence: T1 sequence

B1: endogenous RIG-I (protein, UniProt O95786 1-925)
chain: MTTEQRRSLQAFQDYIRKTLDPTYILSYMAPWFREEEVQYIQAEKNNKGPMEAATLFLKFLLELQEEGWFRGFLDALDHAGYSGLYEAIESWDFKKIEKLEEYRLLLKRLQPEFKTRIIPTDIISDLSECLINQECEEILQICSTKGMMAGAEKLVECLLRSDKENWPKTLKLALEKERNKFSELWIVEKGIKDVETEDLEDKMETSDIQIFYQEDPECQNLSENSCPPSEVSDTNLYSPFKPRNYQLELALPAMKGKNTIICAPTGCGKTFVSLLICEHHLKKFPQGQKGKVVFFANQIPVYEQQKSVFSKYFERHGYRVTGISGATAENVPVEQIVENNDIIILTPQILVNNLKKGTIPSLSIFTLMIFDECHNTSKQHPYNMIMFNYLDQKLGGSSGPLPQVIGLTASVGVGDAKNTDEALDYICKLCASLDASVIATVKHNLEELEQVVYKPQKFFRKVESRISDKFKYIIAQLMRDTESLAKRICKDLENLSQIQNREFGTQKYEQWIVTVQKACMVFQMPDKDEESRICKALFLYTSHLRKYNDALIISEHARMKDALDYLKDFFSNVRAAGFDEIEQDLTQRFEEKLQELESVSRDPSNENPKLEDLCFILQEEYHLNPETITILFVKTRALVDALKNWIEGNPKLSFLKPGILTGRGKTNQNTGMTLPAQKCILDAFKASGDHNILIATSVADEGIDIAQCNLVILYEYVGNVIKMIQTRGRGRARGSKCFLLTSNAGVIEKEQINMYKEKMMNDSILRLQTWDEAVFREKILHIQTHEKFIRDSQEKPKPVPDKENKKLLCRKCKALACYTADVRVIEECHYTVLGDAFKECFVSRPHPKPKQFSSFEKRAKIFCARQNCSHDWGIHVKYKTFEIPVIKIESFVVEDIATGVQTLYSKWKDFHFEKIPFDPAEMSK
B2: endogenous MDA5 (protein, UniProt Q9BYX4 1-1025)
chain: MSNGYSTDENFRYLISCFRARVKMYIQVEPVLDYLTFLPAEVKEQIQRTVATSGNMQAVELLLSTLEKGVWHLGWTREFVEALRRTGSPLAARYMNPELTDLPSPSFENAHDEYLQLLNLLQPTLVDKLLVRDVLDKCMEEELLTIEDRNRIAAAENNGNESGVRELLKRIVQKENWFSAFLNVLRQTGNNELVQELTGSDCSESNAEIENLSQVDGPQVEEQLLSTTVQPNLEKEVWGMENNSSESSFADSSVVSESDTSLAEGSVSCLDESLGHNSNMGSDSGTMGSDSDEENVAARASPEPELQLRPYQMEVAQPALEGKNIIICLPTGSGKTRVAVYIAKDHLDKKKKASEPGKVIVLVNKVLLVEQLFRKEFQPFLKKWYRVIGLSGDTQLKISFPEVVKSCDIIISTAQILENSLLNLENGEDAGVQLSDFSLIIIDECHHTNKEAVYNNIMRHYLMQKLKNNRLKKENKPVIPLPQILGLTASPGVGGATKQAKAEEHILKLCANLDAFTIKTVKENLDQLKNQIQEPCKKFAIADATREDPFKEKLLEIMTRIQTYCQMSPMSDFGTQPYEQWAIQMEKKAAKEGNRKERVCAEHLRKYNEALQINDTIRMIDAYTHLETFYNEEKDKKFAVIEDDSDEGGDDEYCDGDEDEDDLKKPLKLDETDRFLMTLFFENNKMLKRLAENPEYENEKLTKLRNTIMEQYTRTEESARGIIFTKTRQSAYALSQWITENEKFAEVGVKAHHLIGAGHSSEFKPMTQNEQKEVISKFRTGKINLLIATTVAEEGLDIKECNIVIRYGLVTNEIAMVQARGRARADESTYVLVAHSGSGVIEHETVNDFREKMMYKAIHCVQNMKPEEYAHKILELQMQSIMEKKMKTKRNIAKHYKNNPSLITFLCKNCSVLACSGEDIHVIEKMHHVNMTPEFKELYIVRENKALQKKCADYQINGEIICKCGQAWGTMMVHKGLDLPCLKIRNFVVVFKNNSTKKQYKKWVELPITFPNLDYSECCLFSDED
B3: endogenous AIM2 (protein, UniProt O14862 1-343)
chain: MESKYKEILLLTGLDNITDEELDRFKFFLSDEFNIATGKLHTANRIQVATLMIQNAGAVSAVMKTIRIFQKLNYMLLAKRLQEEKEKVDKQYKSVTKPKPLSQAEMSPAASAAIRNDVAKQRAAPKVSPHVKPEQKQMVAQQESIREGFQKRCLPVMVLKAKKPFTFETQEGKQEMFHATVATEKEFFFVKVFNTLLKDKFIPKRIIIIARYYRHSGFLEVNSASRVLDAESDQKVNVPLNIIRKAGETPKINTLQTQPLGTIVNGLFVVQKVTEKKKNILFDLSDNTGKMEVLGVRNEDTMKCKEGDKVRLTFFTLSKNGEKLQLTSGVHSTIKVIKAKKKT
B4: endogenous TLR7 (receptor, UniProt Q9NYK1 27-1049)
chain: ARWFPKTLPCDVTLDVPKNHVIVDCTDKHLTEIPGGIPTNTTNLTLTINHIPDISPASFHRLDHLVEIDFRCNCVPIPLGSKNNMCIKRLQIKPRSFSGLTYLKSLYLDGNQLLEIPQGLPPSLQLLSLEANNIFSIRKENLTELANIEILYLGQNCYYRNPCYVSYSIEKDAFLNLTKLKVLSLKDNNVTAVPTVLPSTLTELYLYNNMIAKIQEDDFNNLNQLQILDLSGNCPRCYNAPFPCAPCKNNSPLQIPVNAFDALTELKVLRLHSNSLQHVPPRWFKNINKLQELDLSQNFLAKEIGDAKFLHFLPSLIQLDLSFNFELQVYRASMNLSQAFSSLKSLKILRIRGYVFKELKSFNLSPLHNLQNLEVLDLGTNFIKIANLSMFKQFKRLKVIDLSVNKISPSGDSSEVGFCSNARTSVESYEPQVLEQLHYFRYDKYARSCRFKNKEASFMSVNESCYKYGQTLDLSKNSIFFVKSSDFQHLSFLKCLNLSGNLISQTLNGSEFQPLAELRYLDFSNNRLDLLHSTAFEELHKLEVLDISSNSHYFQSEGITHMLNFTKNLKVLQKLMMNDNDISSSTSRTMESESLRTLEFRGNHLDVLWREGDNRYLQLFKNLLKLEELDISKNSLSFLPSGVFDGMPPNLKNLSLAKNGLKSFSWKKLQCLKNLETLDLSHNQLTTVPERLSNCSRSLKNLILKNNQIRSLTKYFLQDAFQLRYLDLSSNKIQMIQKTSFPENVLNNLKMLLLHHNRFLCTCDAVWFVWWVNHTEVTIPYLATDVTCVGPGAHKGQSVISLDLYTCELDLTNLILFSLSISVSLFLMVMMTASHLYFWDVWYIYHFCKAKIKGYQRLISPDCCYDAFIVYDTKDPAVTEWVLAELVAKLEDPREKHFNLCLEERDWLPGQPVLENLSQSIQLSKKTVFVMTDKYAKTENFKIAFYLSHQRLMDEKVDVIILIFLEKPFQKSKFLQLRKRLCGSSVLEWPTNPQAHPYFWQCLKNALATDNHVAYSQVFKETV

These molecules were tested against T1, endogenous IRGM (human (endogenous in THP-1)) (assay: co-IP).
With B1 the binding was “binds”. In the case of B2, the binding is reported as “no binding”. For B3, the binding was “no binding”. With B4 the binding was “no binding”.

Molecular target: T1, endogenous IRGM (human (endogenous in THP-1))
Assay: co-IP
Remark: another data set of the same source
For “endogenous cGAS (from UniProt Q8N884 1-522)”, the binding was “binds”. In the case of “endogenous TLR3 (from UniProt O15455 24-904) (receptor)”, the binding is reported as “binds”. “endogenous TLR4 (from UniProt O00206 24-839) (receptor)” was tested, and the binding was “no binding”. For “endogenous NLRC4 (from UniProt Q9NPP4 1-1024)”, the binding was “no binding”.

What follows are molecules tested against T2, GFP-IRGM (human) (assay: co-IP).
With Flag-cGAS (from UniProt Q8N884 1-522) the binding was “binds”. Flag-p62 (from UniProt Q13501 1-440) was tested, and the binding was “binds”. For “Flag-Optineurin (from UniProt Q96CV9 1-577)”, the binding was “no binding”. “Flag-TLR3 (from UniProt O15455 24-904) (receptor)” was tested, and the binding was “binds”.
